This passage reports z-score results from PubChem BioAssay AID1508600 (Functional Genomics Laboratory (NCATS/FGL), 2020).

The campaign covered roughly 53,000 sequences. About 3,700 (7%) were called active.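 The calls were made as follows: active = gene knockdowns whose robust z-score for IL-1 alpha signal is at least 2 or at most -2, so actives lie on both sides; inactive = the rest.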 Some of the results follow.

The test in a line: Components of the Cytosolic LPS Sensing Pathway: Gene Identification via Genome-wide siRNA Screen.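 Also: robust z of the log signal after scaling to non-targeting control siRNA wells of the plate.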 The following applies: RAW264.7 macrophages, IL-1a HTRF, actives lie on both sides, screened at 100 nM (by protocol), cells primed 5 h with Pam3CSK4 first. In outline: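 Knockdown: 100 nM siRNA, 48h, RAW264.7. Stimulation: Pam3CSK4 5 h, then LipidA via TransIT-TKO 24 h. Output: supernatant IL-1a HTRF, negative-control-normalized, log robust z-score; viability by CellTiter-Glo.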
Background: Time-resolved FRET reads energy transfer from a long-lived donor to a nearby acceptor.
Regarding GCAACCGAAGUAACAUAUATT against Rbmy, the z-score is inactive: -0.805.

Regarding GAUGGUACUCUUCAUAGUATT against Olfr1362, the z-score is inactive: -1.1.

With GCCGUUUACGUUUAUUGUUTT against Cux2, the z-score was inactive: -0.0356.

For CCCAGGACGACGACUUUUUTT against Pnmal1, the z-score was inactive: -0.0664.

Take GGGAAGAAAAAAAAAGGGUTT against Fkrp: the z-score was inactive: -1.18.

Turning to GGAUGAAAAAUCAGUACUUTT against Aadac, the z-score is active: -2.02.

For the sequence GGGUAAUUAAAAAGGAAACTT against Nt5dc1, the z-score is inactive: 1.3.

For CCUGGAAAAUAAAAGGUGGTT against Olfr1141, the z-score was inactive: 0.147.

As to CCAGUUCGAUGUGGUAAUATT against St3gal5, the z-score is inactive: 1.11.

Consider GGACACUGUACAGAAGCUGTT against Asb18, for which the z-score is active: -2.31.

On to GCAAAAAAUGCUCAGUUAGTT against Utp14b, for which the z-score is inactive: -0.406.

As for GGAAAGAAAAAUCAGAGAATT against Adprhl1, the z-score is inactive: -0.866.

Take GGAGGGACACAGAGAUUACTT against Auh: the z-score was active: 5.05.

Turning to GGUUCAUCAACACCAGCAUTT against Fgfrl1, the z-score is inactive: 0.926.

Consider GCCUGUGCCAGAUUUUCUCTT against Rgl2, for which the z-score was inactive: 0.458.

Consider CCGGAUCAUCCUGGAGAUUTT against Krt13, for which the z-score was inactive: -0.846.

For GGAUAGGUUUCUGUAUUUATT against Znrf1, the z-score is inactive: 0.621.

As to GGCUGAGCCAUUUGACAGATT against Afap1l2, the z-score was inactive: 0.878.

GCUCAACAGACUCUGUACUTT against Cadm2: the z-score was inactive: 0.95.

As to GGGUGAUUUCUGGACUUGGTT against Arap1, the z-score is inactive: -1.84.

Regarding CCGUAUUCCAUACAAGGACTT against Ilk, the z-score was inactive: -1.22.

For the sequence GGAUGAAACACAACUGCACTT against Ctsz, the z-score was inactive: 0.256.

In the case of GGCGUGAAGAAGUUUGAUGTT against Pklr, the z-score was inactive: -0.431.

Consider GAAGAGCGGGUGUUGCUAATT against Ypel2, for which the z-score was inactive: 0.891.

In the case of GCAGUAACUCCGGUAGUAGTT against Daxx, the z-score is active: 5.84.

Consider GGAGGAAAUACAUGAUAAATT against Strap, for which the z-score is inactive: -0.159.

As for GGAUAACAAAAACAGCAUUTT against Lmbrd2, the z-score is inactive: 0.205.

As for GCAGAGGAUUGAUGCACACTT against Nlrp4g, the z-score is inactive: 1.14.

Turning to GGAGAUUGAGCUGAAUAUUTT against Prss44, the z-score was inactive: -0.734.

For CUUACAUUCCCAGUGUGCCTT against Nat14, the z-score was inactive: -0.198.

With GAUUGGAUUUAAAGCCUGCTT against Olfr667, the z-score is inactive: 0.389.

Turning to GGCAAUGACCUUGUAAAGATT against Tomm34, the z-score is inactive: -1.56.

Take GCAGGCUUAAUGAAUUCUATT against Haus6: the z-score is inactive: -0.133.

CGUGGACUCUAUAAUCAACTT against Map7d1: the z-score was active: 2.47.

Turning to GGAAGUAGAGCUUCAAAUGTT against Cdkl2, the z-score is active: 2.8.

Turning to GGAUCGUUAGUCAUUUCUGTT against Olfr1054, the z-score was inactive: -0.78.

In the case of GGCCAUUGAUACCUACUGCTT against Comt, the z-score was inactive: -1.03.

For GCAGUUAUUACCAAUAAUGTT against Plcd1, the z-score was inactive: 1.16.

Regarding GCACGUAUGGAAUUCAUGUTT against Daam2, the z-score is inactive: 1.23.

As for GGAGGGUGAUCUCAUUGAATT against Prkd1, the z-score is inactive: 0.479.

On to GGCUCCAACAGCGACAUGUTT against Glul, for which the z-score was inactive: 0.851.

GCUAAUAACAGUCCUUUCATT against Rorc: the z-score is inactive: -1.37.

Turning to GGAGCUGCGCAACAUUAUCTT against Ada, the z-score was inactive: -1.11.

With CCCUCAUCUUUGACGUGGATT against Fkbp1b, the z-score was inactive: 1.62.

Regarding GCUCAGUAAUCGCUGUCUATT against Olfr91, the z-score is inactive: -0.62.

As for GGACUUAUCACUAUUUGCATT against Dlgap3, the z-score is inactive: 0.782.

As to GGUGAAUCGGUUUUCAGAUTT against Iffo2, the z-score is inactive: 1.27.

Consider CCUCUCAUGAUGUUACCACTT against Rubcnl, for which the z-score was inactive: -1.56.

In the case of GGAUAUCGGAUAUGUAAAUTT against Syk, the z-score was inactive: 0.252.

Regarding GCAGGCUAUGCUACGCACATT against Arsb, the z-score is inactive: -1.66.

For the sequence GGCUUUCUCCAAGCUAUAUTT against Tdgf1, the z-score is inactive: -1.83.

Turning to GGCAAGGUCAAGGACACCATT against Tcp11, the z-score was inactive: -0.77.

Regarding GAAGGAGACAGCACAAGUCTT against H2-M10.2, the z-score was inactive: 1.39.

For the sequence GGGUUUAAAGGUUAUGGAGTT against Adam17, the z-score is inactive: -0.814.

CGGUUCUGGUGCAUUCACATT against Olfr242: the z-score is active: -2.06.

With GGUAAAUUACUCUGAUCAATT against Gpr61, the z-score is inactive: -0.593.

Take GGUUCUCCUUGUUUUGCUGTT against Defb20: the z-score is inactive: 1.17.

On to GGGUCUCACUCUCUUCCGATT against Slc23a1, for which the z-score is inactive: -0.329.

Consider GGUACCAUCCGGAAUACAATT against Zdhhc19, for which the z-score was active: 3.95.

On to GGAAUAUGAAGCAUAAGUGTT against Tcim, for which the z-score is inactive: -0.0103.

On to GCGUAACGCAGCAGCUAAGTT against Tarbp2, for which the z-score is active: -3.01.

With GCUGGUAUUCAGCACCUUUTT against Cyp17a1, the z-score was inactive: 0.357.

GGACUUCGACAAACUGAAGTT against Zfp532: the z-score is inactive: 0.547.

Turning to GGAUCUCUUUUUUCACAUGTT against Kcne2, the z-score is inactive: 0.605.

Turning to GCUUUGCACAAAACACUUATT against Zfp345, the z-score is inactive: -0.635.

Turning to GGCAUUUGUAAUAUGGAGATT against Erlin1, the z-score is inactive: -0.823.

On to “GCCCUAGGACCAAGAACAATT against 9930012K11Rik”, for which the z-score is inactive: -0.734.

In the case of GCCUUGGCCUAAGUUAUACTT against Ttll12, the z-score was inactive: -0.223.

On to GGCAUUCAUGUUCUUGACUTT against Ptp4a1, for which the z-score was inactive: -1.48.

In the case of GGAACAAAGUAGGAGCUUGTT against Zfp318, the z-score was inactive: 0.369.

For CGUGGAUGAUACCAAAAUGTT against Igsf21, the z-score was inactive: -0.73.

With CCUUCUGGUAGUGAUUAUCTT against Olfr1535, the z-score was inactive: -0.324.

Take GGGAAGUGGCUUUUGAUGUTT against Itih1: the z-score is inactive: -0.849.

As to “GGAAGAAACCUUUGUCAAGTT against 9130023H24Rik”, the z-score is inactive: -0.398.

As for “CGAAUCGAGUGAAGAAAAATT against 4930544G11Rik”, the z-score was inactive: -0.41.

Regarding GGCAUUUACCAAGUUCCUGTT against Olfr522, the z-score was inactive: -1.26.

Regarding GGUGUUUAAGGAUGAACAATT against L3mbtl3, the z-score is inactive: 0.104.

As for GCCAGUUUACACCAGAGUCTT against Tecta, the z-score is inactive: 0.305.

For the sequence CUUCUUGGUGGGUCUGACUTT against Taar7e, the z-score was active: -2.63.

As for GCGGGAAAAUGAGACCAAATT against Bin3, the z-score is inactive: 1.95.

GGAUAUAAGUUCCAGUUUGTT against Fam166b: the z-score is inactive: 0.834.

In the case of CCCGAUUAUCUAGUGAUACTT against Sbk1, the z-score is inactive: 0.311.

On to GCAAUUCGAUUGAAGAUCUTT against Aoc3, for which the z-score is inactive: 0.285.

In the case of GCUAGAGGCUCAAAUACAGTT against Tmem45b, the z-score was inactive: 0.664.

Take GGUCCCUACAGGGAACAAATT against Trim10: the z-score was inactive: 0.197.

Take GACAGUUAACCUUUUAAGATT against Pigyl: the z-score is inactive: -0.483.

GGUUCAAGAGGAGACUACUTT against BC005624: the z-score was inactive: -0.127.

Take GGAUGGCUACAUUGACUUCTT against Guca1a: the z-score was inactive: -1.01.

Consider GGAGGUCAAAGUAAACUGGTT against Tial1, for which the z-score is active: 2.2.

As for CGAGAAAUAUAUGAAUGUCTT against Adgrl4, the z-score is inactive: -0.871.

Take CCAUUUUUCCUACGUGGGUTT against Zfand2a: the z-score is inactive: 0.449.

Regarding “GGGAAGUCAAAGAAGAAUGTT against 2010106E10Rik”, the z-score was inactive: 0.0964.

As for GGAUUCUGUGACCCUUGCATT against Bcam, the z-score is inactive: -0.0454.

With GGGAACCUUGUCAUGAUGATT against Tbc1d16, the z-score is inactive: -0.98.

As to GCCGUUUAUCCUAUGAACUTT against Fign, the z-score is inactive: 0.744.

Turning to GCUGUGUGUGAUUGAUUGGTT against Mgme1, the z-score was inactive: 0.255.

Consider GGCUAACAACUUCUACAUCTT against Wasf3, for which the z-score was inactive: 0.0369.

As to CCCAGGCAUACUACAAGGUTT against Ermn, the z-score was inactive: 0.32.

As to GGCUUGUAAUCCUAGAUGUTT against Sae1, the z-score is inactive: -1.37.

CCUCAUAUAUCCCUAAUUATT against Camk1g: the z-score was inactive: -0.982.

For the sequence GGUGCUGUGUAAUCACCGATT against Psmc2, the z-score is inactive: -0.903.

As to GUCCAGAUGGCUAAUUCUATT against Rpl23a, the z-score is inactive: 1.14.

GGAAAUUCUACAGAAGUCUTT against Ecscr: the z-score is inactive: -0.659.

Consider GGAAAUGGCACAAGAAGUCTT against Tslp, for which the z-score was inactive: 0.259.

In the case of GUUUAUCCUUAUGGGUUUATT against Olfr456, the z-score was inactive: 1.74.

Regarding GGGCUAUCUUCUGAUUGGCTT against Zp3r, the z-score is active: -2.45.

Turning to GAUCCUUUCCUUCUUCCUCTT against Olfr1086, the z-score was inactive: -0.745.
